Test results reported in publication PMC8534263.
Results are given in words; binding and its absence hold for the method and conditions named. In cells and extracts the contact can be indirect. A result given as binding can be weak or reduced; the word gives no strength.

T1: Zonula occludens 2 (ZO-2) (dog (endogenous in MDCK)) (UniProt Q95168)
T1 sequence: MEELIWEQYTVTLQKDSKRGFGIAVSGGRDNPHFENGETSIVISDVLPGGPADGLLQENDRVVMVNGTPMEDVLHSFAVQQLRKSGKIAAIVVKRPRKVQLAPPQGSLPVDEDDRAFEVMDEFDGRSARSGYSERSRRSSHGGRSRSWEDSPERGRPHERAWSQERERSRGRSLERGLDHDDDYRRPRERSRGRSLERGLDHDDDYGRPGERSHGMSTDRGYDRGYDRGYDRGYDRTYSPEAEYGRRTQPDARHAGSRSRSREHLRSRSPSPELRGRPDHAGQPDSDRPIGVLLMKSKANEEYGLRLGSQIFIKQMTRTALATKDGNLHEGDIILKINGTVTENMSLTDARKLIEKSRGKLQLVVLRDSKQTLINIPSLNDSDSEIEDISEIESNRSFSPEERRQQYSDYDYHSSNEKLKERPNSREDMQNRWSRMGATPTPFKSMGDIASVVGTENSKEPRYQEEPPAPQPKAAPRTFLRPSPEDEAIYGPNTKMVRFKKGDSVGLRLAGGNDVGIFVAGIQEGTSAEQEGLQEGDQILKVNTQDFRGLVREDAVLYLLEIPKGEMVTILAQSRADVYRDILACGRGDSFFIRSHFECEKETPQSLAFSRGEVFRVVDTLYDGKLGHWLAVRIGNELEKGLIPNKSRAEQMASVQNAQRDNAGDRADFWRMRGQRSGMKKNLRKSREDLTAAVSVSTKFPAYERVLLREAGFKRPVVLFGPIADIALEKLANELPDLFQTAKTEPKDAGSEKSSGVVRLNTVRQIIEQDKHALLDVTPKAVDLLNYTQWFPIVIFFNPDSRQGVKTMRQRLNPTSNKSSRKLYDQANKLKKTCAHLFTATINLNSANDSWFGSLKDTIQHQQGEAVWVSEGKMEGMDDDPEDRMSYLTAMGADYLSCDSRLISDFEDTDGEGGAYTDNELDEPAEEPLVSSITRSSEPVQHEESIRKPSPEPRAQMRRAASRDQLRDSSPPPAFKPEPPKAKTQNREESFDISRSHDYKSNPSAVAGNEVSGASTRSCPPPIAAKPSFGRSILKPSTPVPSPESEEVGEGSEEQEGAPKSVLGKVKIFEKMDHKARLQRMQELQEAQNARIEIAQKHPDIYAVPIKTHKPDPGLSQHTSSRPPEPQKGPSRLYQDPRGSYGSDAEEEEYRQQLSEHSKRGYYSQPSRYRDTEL


Assays:
[1] = target: T1, Zonula occludens 2 (ZO-2) (dog (endogenous in MDCK)); assay: co-IP; immunoprecipitation of ZO-2 from sparse MDCK cells, Western blot of the partners; endogenous proteins
[2] = target: SUN-1 (dog (endogenous in MDCK)); assay: co-IP; immunoprecipitation of SUN-1 or lamin B1 from sparse MDCK cells, Western blot of ZO-2; endogenous proteins

binding [1]	binding [2]	Molecule
no binding		nesprin-4 (dog (endogenous in MDCK))
binds		SUN-1 (dog (endogenous in MDCK))
no binding		lamin A (dog (endogenous in MDCK))
no binding		nesprin-3 (dog (endogenous in MDCK))
no binding		lamin C (dog (endogenous in MDCK))
	binds	Zonula occludens 2 (ZO-2) (protein, UniProt Q95168 1-1174) MEELIWEQYTVTLQKDSKRGFGIAVSGGRDNPHFENGETSIVISDVLPGGPADGLLQENDRVVMVNGTPMEDVLHSFAVQQLRKSGKIAAIVVKRPRKVQLAPPQGSLPVDEDDRAFEVMDEFDGRSARSGYSERSRRSSHGGRSRSWEDSPERGRPHERAWSQERERSRGRSLERGLDHDDDYRRPRERSRGRSLERGLDHDDDYGRPGERSHGMSTDRGYDRGYDRGYDRGYDRTYSPEAEYGRRTQPDARHAGSRSRSREHLRSRSPSPELRGRPDHAGQPDSDRPIGVLLMKSKANEEYGLRLGSQIFIKQMTRTALATKDGNLHEGDIILKINGTVTENMSLTDARKLIEKSRGKLQLVVLRDSKQTLINIPSLNDSDSEIEDISEIESNRSFSPEERRQQYSDYDYHSSNEKLKERPNSREDMQNRWSRMGATPTPFKSMGDIASVVGTENSKEPRYQEEPPAPQPKAAPRTFLRPSPEDEAIYGPNTKMVRFKKGDSVGLRLAGGNDVGIFVAGIQEGTSAEQEGLQEGDQILKVNTQDFRGLVREDAVLYLLEIPKGEMVTILAQSRADVYRDILACGRGDSFFIRSHFECEKETPQSLAFSRGEVFRVVDTLYDGKLGHWLAVRIGNELEKGLIPNKSRAEQMASVQNAQRDNAGDRADFWRMRGQRSGMKKNLRKSREDLTAAVSVSTKFPAYERVLLREAGFKRPVVLFGPIADIALEKLANELPDLFQTAKTEPKDAGSEKSSGVVRLNTVRQIIEQDKHALLDVTPKAVDLLNYTQWFPIVIFFNPDSRQGVKTMRQRLNPTSNKSSRKLYDQANKLKKTCAHLFTATINLNSANDSWFGSLKDTIQHQQGEAVWVSEGKMEGMDDDPEDRMSYLTAMGADYLSCDSRLISDFEDTDGEGGAYTDNELDEPAEEPLVSSITRSSEPVQHEESIRKPSPEPRAQMRRAASRDQLRDSSPPPAFKPEPPKAKTQNREESFDISRSHDYKSNPSAVAGNEVSGASTRSCPPPIAAKPSFGRSILKPSTPVPSPESEEVGEGSEEQEGAPKSVLGKVKIFEKMDHKARLQRMQELQEAQNARIEIAQKHPDIYAVPIKTHKPDPGLSQHTSSRPPEPQKGPSRLYQDPRGSYGSDAEEEEYRQQLSEHSKRGYYSQPSRYRDTEL
